From the supplement of paper PMC4807443
Where a name gives a salt, the structure may show the parent alone. The list shows a part of the results. The numbers are fractions of the control, whatever unit the source prints. Most entries show no effect beyond the scatter of the controls.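 MIN6 is a mouse insulinoma beta-cell line that stably carries a lentiviral reporter in which the Pdx1 and Ins1 promoters each drive a nucleus-targeted fluorescent protein; cells were counted by automated imaging with a Hoechst nuclear stain. In the screen, a drug was a possible hit when its Ins1 promoter readout lay beyond two median absolute deviations from the DMSO controls while Pdx1 activity stayed near normal.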

These compounds were tested on MIN6 (assay: % Pdx1+ Ins1-low (RFP-only, immature) cells relative to DMSO control (fold of DMSO control); higher = more immature Pdx1+/Ins1-low cells). Details: 8.5 µM; 48 h; glucose 5 mM.
For COc1ccc2[nH]c3c(c2c1)CCN=C3C [Methoxy-6-harmalan], the “% Pdx1+ Ins1-low” value was 1.48. With CC(C)[C@@]1(NC(=O)[C@@H]2C[C@@H]3c4cccc5[nH]cc(c45)C[C@H]3N(C)C2)O[C@@]2(O)[C@@H]3CCCN3C(=O)[C@H](Cc3ccccc3)N2C1=O [Dihydroergocristine mesylate] the “% Pdx1+ Ins1-low” value was 0.902. In the case of COc1ccn(C)c(=O)c1C#N [Ricinine], the “% Pdx1+ Ins1-low” value is reported as 1.05. With CC[C@H](C)[C@H]1O[C@]2(C=C[C@@H]1C)C[C@@H]1C[C@@H](C/C=C(\C)[C@@H](O[C@H]3C[C@H](OC)[C@@H](O[C@H]4C[C@H](OC)[C@@H](O)[C@H](C)O4)[C@H](C)O3)[C@@H](C)/C=C/C=C3\CO[C@@H]4[C@H](O)C(C)=C[C@@H](C(=O)O1)[C@]34O)O2.CO[C@H]1C[C@H](O[C@H]2[C@H](C)O[C@@H](O[C@@H]3/C(C)=C/C[C@@H]4C[C@@H](C[C@]5(C=C[C@H](C)[C@@H](C(C)C)O5)O4)OC(=O)[C@@H]4C=C(C)[C@@H](O)[C@H]5OC/C(=C\C=C\[C@@H]3C)[C@]54O)C[C@@H]2OC)O[C@@H](C)[C@@H]1O [Avermectin B1] the “% Pdx1+ Ins1-low” value was 0.893. With C[C@]12CCC(=O)C=C1CC[C@@H]1[C@@H]2C(=O)C[C@]2(C)C(=O)CC[C@@H]12 [Adrenosterone] the “% Pdx1+ Ins1-low” value was 0.571. With C[N+]1(C)CCOC(O)(c2ccc(-c3ccc(C4(O)C[N+](C)(C)CCO4)cc3)cc2)C1 (stereo not given) [Hemicholinium bromide] the “% Pdx1+ Ins1-low” value was 1.1. With CN(C)Cc1c[nH]c2ccccc12 [Gramine] the “% Pdx1+ Ins1-low” value was 0.709. In the case of O=C(O)CCCc1ccc(N(CCCl)CCCl)cc1 [Chlorambucil], the “% Pdx1+ Ins1-low” value is reported as 0.813. For CCCN1C[C@H](CSC)C[C@@H]2c3cccc4[nH]cc(c34)C[C@H]21 [Pergolide mesylate], the “% Pdx1+ Ins1-low” value was 1.22. CCCCc1ccc(C(=O)O)nc1 [Fusaric acid] was tested, and the “% Pdx1+ Ins1-low” value was 0.782. In the case of CC[C@@]1(O)C(=O)OCc2c1cc1n(c2=O)Cc2cc3ccccc3nc2-1 [Camptothecine (S,+)], the “% Pdx1+ Ins1-low” value is reported as 0.942. With CCC(=O)O[C@@](Cc1ccccc1)(c1ccccc1)[C@@H](C)CN(C)C [Levopropoxyphene napsylate] the “% Pdx1+ Ins1-low” value was 0.84. With c1ccc2nc(N3CCNCC3)ccc2c1 [Quipazine dimaleate salt] the “% Pdx1+ Ins1-low” value was 1.34. With C[N+](C)(C)CCCCCCCCCC[N+](C)(C)C [Decamethonium bromide] the “% Pdx1+ Ins1-low” value was 0.782. C[N+]1(C)[C@@H]2CC[C@H]1C[C@@H](OC(=O)C(CO)c1ccccc1)C2 (stereo not given in full) [Methylatropine nitrate] was tested, and the “% Pdx1+ Ins1-low” value was 0.519. In the case of CN1C[C@H](C(=O)N[C@]2(C)O[C@@]3(O)[C@@H]4CCCN4C(=O)[C@H](Cc4ccccc4)N3C2=O)C[C@@H]2c3cccc4[nH]cc(c34)C[C@H]21 [Dihydroergotamine tartrate], the “% Pdx1+ Ins1-low” value is reported as 0.822. CC(C)N(CCC(C(N)=O)(c1ccccc1)c1ccccn1)C(C)C (stereo not given) [Disopyramide] was tested, and the “% Pdx1+ Ins1-low” value was 0.912. For C[C@H](N)[C@H](O)c1ccc(O)c(O)c1 [Levonordefrin], the “% Pdx1+ Ins1-low” value was 0.69. For CC[C@H]1CN2CCc3cc(OC)c(OC)cc3[C@@H]2C[C@@H]1C[C@H]1NCCc2cc(O)c(OC)cc21 [Cephaeline dihydrochloride heptahydrate], the “% Pdx1+ Ins1-low” value was 1.09. With CCN1C[C@]2(C)CC[C@H](OC)[C@@]34C1[C@]1(OCO[C@@]15C[C@H](OC)[C@H]1C[C@]3(O)[C@@H]5[C@H]1OC)[C@@H](OC(C)=O)[C@H]24 [Deltaline] the “% Pdx1+ Ins1-low” value was 0.823. For CN1[C@@H]2CC[C@H]1C[C@@H](OC(=O)[C@H](CO)c1ccccc1)C2 [Hyoscyamine (L)], the “% Pdx1+ Ins1-low” value was 1.17. COc1ccc(CN2CCNCC2)c(OC)c1OC [Trimetazidine dihydrochloride] was tested, and the “% Pdx1+ Ins1-low” value was 1.21. O=c1[nH]c2ccccc2n1CCCN1CCC(n2c(=O)[nH]c3cc(Cl)ccc32)CC1 [Domperidone maleate] was tested, and the “% Pdx1+ Ins1-low” value was 1.25. For C#C[C@]1(O)CC[C@H]2[C@@H]3CCC4=CC(=O)CC[C@]4(C)[C@H]3CC[C@@]21C [Ethisterone], the “% Pdx1+ Ins1-low” value was 0.611. For C=C1[C@H]2C[C@@]3([C@@H]1O)[C@@H](C[C@@H]2O)[C@]12[C@@H]4C[C@H]3[C@H]1N(CC)C[C@]4(C)CC[C@@H]2O [Napelline], the “% Pdx1+ Ins1-low” value was 1.14. In the case of CC(C)[N+](C)(CCC(C(N)=O)(c1ccccc1)c1ccccc1)C(C)C [Isopropamide iodide], the “% Pdx1+ Ins1-low” value is reported as 0.726. For C/C=C1/C[N+]2(C)CCC34C(=C(C=O)[C@H]1C[C@@H]32)Nc1ccccc14 (stereo not given in full) [Fluorocurarine chloride], the “% Pdx1+ Ins1-low” value was 0.327. With S=C(NC1CCCCC1)N1CCC(c2cnc[nH]2)CC1 [Thioperamide maleate] the “% Pdx1+ Ins1-low” value was 0.627. With C[C@]12CC[C@H]3[C@@H](CC[C@]4(O)C[C@@H](O)CC[C@]34C=O)[C@@]1(O)CC[C@@H]2C1=CC(=O)OC1 [Strophanthidin] the “% Pdx1+ Ins1-low” value was 0.734. In the case of CCN(CC)C(=O)N[C@H]1C=C2c3cccc4[nH]cc(c34)C[C@H]2N(C)C1 [Lisuride (S)(-)], the “% Pdx1+ Ins1-low” value is reported as 0.696. CCN(CC)C(=O)N[C@@H]1CC2c3cccc4[nH]cc(c34)CC2N(C)C1 (stereo partly drawn) [S(-)-terguride hydrogen maleate] was tested, and the “% Pdx1+ Ins1-low” value was 1.05. For NC(N)=NOCC[C@H](N)C(=O)O [Canavanine sulfate monohydrate (L,+)], the “% Pdx1+ Ins1-low” value was 0.93. CN1[C@@H]2CCC[C@H]1CC(=O)C2 [Pseudopelletierine hydrochloride] was tested, and the “% Pdx1+ Ins1-low” value was 1.23. With COc1ccc2c(c1)[C@]13CCCC[C@@H]1[C@H](C2)N(C)CC3 [Dextromethorphan hydrobromide monohydrate] the “% Pdx1+ Ins1-low” value was 0.886. For C=C[C@H]1CN2CC[C@H]1C[C@H]2[C@H](O)c1ccnc2ccccc12 [(-)-Cinchonidine], the “% Pdx1+ Ins1-low” value was 1.36. In the case of CC1=NCCc2c1[nH]c1cc(O)ccc21 [Harmalol hydrochloride dihydrate], the “% Pdx1+ Ins1-low” value is reported as 0.801. In the case of CNCC(O)c1ccc(O)cc1 (racemic) [(+,-)-Synephrine], the “% Pdx1+ Ins1-low” value is reported as 0.921. In the case of CC1=CC(=O)C2=C(C)C[C@H](O)[C@@H]3[C@H](OC(=O)[C@H]3C)[C@H]12 [Austricine], the “% Pdx1+ Ins1-low” value is reported as 0.726. With C[C@]12CC[C@@H](O)C[C@@H]1CC[C@@H]1[C@@H]2CC[C@]2(C)C(=O)CC[C@@H]12 [Androsterone] the “% Pdx1+ Ins1-low” value was 1.48. In the case of COc1cc2c3cc1Oc1cc(ccc1O)C[C@@H]1c4c(cc(OC)c(O)c4Oc4cccc(c4)C[C@@H]3N(C)CC2)CC[N+]1(C)C [Tubocurarine chloride pentahydrate (+)], the “% Pdx1+ Ins1-low” value is reported as 1.04. C1CCc2nnnn2CC1 [Pentylenetetrazole] was tested, and the “% Pdx1+ Ins1-low” value was 0.927. COc1cc2c(cc1O)[C@@H]1Cc3ccc(OC)c(O)c3CN1CC2 [Scoulerine] was tested, and the “% Pdx1+ Ins1-low” value was 1.13. For CC(Cc1ccc(O)cc1)NCC(O)c1cc(O)cc(O)c1 (stereo not given) [Fenoterol hydrobromide], the “% Pdx1+ Ins1-low” value was 0.619. With C=C[C@H]1CN2CC[C@H]1C[C@@H]2[C@@H](O)c1ccnc2ccccc12 [Cinchonine] the “% Pdx1+ Ins1-low” value was 0.46. C=C1[C@@H]2CC[C@H]3[C@]4(C)C[C@H](O[C@@H]5O[C@H](CO)[C@@H](OS(=O)(=O)O)[C@H](OS(=O)(=O)O)[C@H]5OC(=O)CC(C)C)C[C@@H](C(=O)O)[C@H]4CC[C@]3(C2)[C@@H]1O [Atractyloside potassium salt] was tested, and the “% Pdx1+ Ins1-low” value was 1.19.
